For 42 sequences, binding signal results are on record in paper PMC7819943, “Rice protein-binding microarrays: a tool to detect cis-acting elements near promoter regions in rice”.

This is one part of the list.

The target in the test is T1, OsSMF1 (Oryza sativa, UniProt Q6ZLB0 1-436).
T1 sequence: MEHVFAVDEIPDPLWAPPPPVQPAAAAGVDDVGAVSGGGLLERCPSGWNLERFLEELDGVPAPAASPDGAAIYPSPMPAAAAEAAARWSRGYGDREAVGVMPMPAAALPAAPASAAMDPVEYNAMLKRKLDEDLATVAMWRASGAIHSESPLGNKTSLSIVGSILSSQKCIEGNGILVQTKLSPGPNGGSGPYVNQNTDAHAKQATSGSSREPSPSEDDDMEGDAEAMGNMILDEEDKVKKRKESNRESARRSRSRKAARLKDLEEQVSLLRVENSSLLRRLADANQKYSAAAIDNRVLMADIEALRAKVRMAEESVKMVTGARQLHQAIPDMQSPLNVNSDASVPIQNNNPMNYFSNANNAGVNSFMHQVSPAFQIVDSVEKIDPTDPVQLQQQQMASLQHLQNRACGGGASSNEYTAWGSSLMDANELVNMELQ
In words: protein-binding microarray (RPBM); PBS, 2% BSA, 51.3 ng/ul salmon testes DNA, 50 uM zinc acetate, 200 nM TF, 25 C, 1 h; high values mean tight binding. The conditions noted are these: protein: recombinant; tags: N-terminal polyhistidine and DsRed monomer fusion (pET32a); chain copies: 2; label: CyDye5-dUTP incorporated in the synthesized complementary strand; 3' TTTTT single-stranded linker to array surface; dsDNA, one strand shown. Put shortly:
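The binding signal for each feature is its fluorescence intensity in arbitrary units. An Axon 4000B scanner was used to read a custom Agilent array that had been made double-stranded with Cy5-dUTP primer extension, blocked with 2% BSA, incubated at 25 °C for 1 h with 200 nM protein in PBS, 2% BSA, salmon testes DNA and 50 µM zinc acetate, and washed. The protein was an N-terminal polyhistidine–DsRed transcription factor fusion from E. coli BL21-CodonPlus, purified on Ni–NTA.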
With “AAGTTGGTAGTTAATGAATCCACCTCATATGACAAGCTTCCGGAGTCACCTAGTGCAG”, the binding signal was 4600 fluorescence intensity (a.u.).
For “GGTGGTGTTCATGAGCGATGACTCTGCCTGCCATTCACATCGGAGTCACCTAGTGCAG”, the binding signal is 3910 fluorescence intensity (a.u.).
Take “CAAATAACAACTACTTGTCACACTGCCATTAAAGAAAATACGGAGTCACCTAGTGCAG”: the binding signal was 37000 fluorescence intensity (a.u.).
As for “CAACACCGCCACGTAGGCGCCACATCAGCAAAACCATCCTCGGAGTCACCTAGTGCAG”, the figure is 23200 fluorescence intensity (a.u.); as for “GGGCTAGGTTAGGACTACAAACTAGCGCATAAATCTCGAACGGAGTCACCTAGTGCAG”, 14900 fluorescence intensity (a.u.); as for “CTGGTGCAAGTTATTCCAAGTGCAGGGCTGTTGCTGTGAGCGGAGTCACCTAGTGCAG”, 18400 fluorescence intensity (a.u.).
For “TCAGGGGAATTTCCGTCAAAACGGCGTCTATCCACTCACCCGGAGTCACCTAGTGCAG”, the binding signal is 3400 fluorescence intensity (a.u.).
On to “ACCAAAACTGCCTCGTGTCGGCATCAATAACACCAAGATGCGGAGTCACCTAGTGCAG”, for which the binding signal is 5680 fluorescence intensity (a.u.).
Regarding “TAATTGCTAGTGAGTGAAGATGTGACATGCTTGCGTGGGACGGAGTCACCTAGTGCAG”, the binding signal was 3900 fluorescence intensity (a.u.).
Take “TCAACACACAATCACGTAAGTATATATGGCTCCCTCCTTGCGGAGTCACCTAGTGCAG”: the binding signal was 3260 fluorescence intensity (a.u.).
Regarding “GGAAATCGTGTGACGGATTTATTAAGCATAATTAATCTATCGGAGTCACCTAGTGCAG”, the binding signal is 14400 fluorescence intensity (a.u.).
As to “GTCTCACTGGGATGTTGACGTGGGCAGATTACCGAATACGCGGAGTCACCTAGTGCAG”, the binding signal is 4670 fluorescence intensity (a.u.).
As for “AATCCAATCAGCATACGACACATCAGCATTTTATTAAGTGCGGAGTCACCTAGTGCAG”, the binding signal is 8010 fluorescence intensity (a.u.).
The value for “TGCTGATATTAATGGGTGTGAGGACTTGTACTTTATGAGACGGAGTCACCTAGTGCAG” was 4060 fluorescence intensity (a.u.).
The value for “GAGAGGCGCAGGGGCGGCGGCCCGGCAGTGGCGGGAGGGGCGGAGTCACCTAGTGCAG” was 3250 fluorescence intensity (a.u.); that for “ACAGTAGTTACACCTCATTTACAAATTTACATACTAATTGCGGAGTCACCTAGTGCAG” was 3450 fluorescence intensity (a.u.).
Take “TAGCTAAACCTTACTCCCAAAATTCAGATTGATGAATGCACGGAGTCACCTAGTGCAG”: the binding signal is 29400 fluorescence intensity (a.u.).
On to “AAATTGAGGTGGTTGCCAGAATTTTAAAATTTTCGTGAATCGGAGTCACCTAGTGCAG”, for which the binding signal was 3630 fluorescence intensity (a.u.).
As for “TCCAACCAGATCATGCGACGAGGCTTAATTACGTGTACATCGGAGTCACCTAGTGCAG”, the figure is 3550 fluorescence intensity (a.u.); as for “CAGGCGCACCGCCTCCACCGCGACACGCCGTGTGAGCGCGCGGAGTCACCTAGTGCAG”, 3260 fluorescence intensity (a.u.); as for “GGGGCGGAATAATAGCGGAATGTGATCGTGCCGTGTAATGCGGAGTCACCTAGTGCAG”, 3480 fluorescence intensity (a.u.).
For “CTCCTCATAGATTCTGCTGACGTGGACAACCTAAGCAAGCCGGAGTCACCTAGTGCAG”, the binding signal is 32200 fluorescence intensity (a.u.).
As for “ATTTCTACCTGACGAAGTGACGATGCACTAGCCAGCTACTCGGAGTCACCTAGTGCAG”, the binding signal was 3900 fluorescence intensity (a.u.).
As for “TTAAACGAATCTCGTTGATCATAGCAGCATGTCAGCATCTCGGAGTCACCTAGTGCAG”, the figure is 4840 fluorescence intensity (a.u.); as for “CTGAGTATTGTTGTGGGTCCCAGATGTCAGTGATGTTGTACGGAGTCACCTAGTGCAG”, 3700 fluorescence intensity (a.u.); as for “TAACAAATAACCTTAAGTCCTTAACAAATAATAAGTGCACCGGAGTCACCTAGTGCAG”, 3190 fluorescence intensity (a.u.).
As for “GGACAGTACAATCATACCGTTCTCTGACTGCTGAATAGGACGGAGTCACCTAGTGCAG”, the figure is 3290 fluorescence intensity (a.u.); as for “GAGACTCCAGCCGCTGCCGCCGCCACCACCCACGTCGGCGCGGAGTCACCTAGTGCAG”, 5940 fluorescence intensity (a.u.); as for “GCCGTCATTAGCACATGTGTGTTACTGTAGCACTTATGGCCGGAGTCACCTAGTGCAG”, 3200 fluorescence intensity (a.u.).
In the case of “CTTTTCTTTGCCTTAACCCGTTTTGCGCGGATGGCCCTTTCGGAGTCACCTAGTGCAG”, the binding signal was 13600 fluorescence intensity (a.u.).
Consider “TCACTTCGCTTCGCCTCTGCTTGCGTGCCAAGTCTAAGACCGGAGTCACCTAGTGCAG”, for which the binding signal was 5500 fluorescence intensity (a.u.).
In the case of “TAAAACTTAATTAATGACGTGTTAAACGCTGCTTCGTTTTCGGAGTCACCTAGTGCAG”, the binding signal was 12600 fluorescence intensity (a.u.).
For the sequence “CTCCTTTAAAGAAGAGAATTTGATGATGTGTAAGTTTACACGGAGTCACCTAGTGCAG”, the binding signal is 5780 fluorescence intensity (a.u.).
Consider “AAAACATGATTTTGCCGGACAACGCATTCTCCAATTATATCGGAGTCACCTAGTGCAG”, for which the binding signal is 3330 fluorescence intensity (a.u.).
Consider “TTTAAACTAGTTTCCAAAGAGCCCATCTTCTCCTAATTTCCGGAGTCACCTAGTGCAG”, for which the binding signal is 15800 fluorescence intensity (a.u.).
Regarding “CCTTGCCGCGTGTCCACCTGCCCTTTCATCGACACCAACACGGAGTCACCTAGTGCAG”, the binding signal was 4740 fluorescence intensity (a.u.).
For the sequence “TTAATCACTTCTCAAACTTTTAATGCAATGACTTGTGAACCGGAGTCACCTAGTGCAG”, the binding signal is 3420 fluorescence intensity (a.u.).
On to “AAGATTCGTCTCGCAATTTACACGTAATTTCTTTGCATGCCGGAGTCACCTAGTGCAG”, for which the binding signal was 5570 fluorescence intensity (a.u.).
As to “TACACAACGGGCATGGATAATGTGGATGGCGTGGATAAGTCGGAGTCACCTAGTGCAG”, the binding signal was 37700 fluorescence intensity (a.u.).
Regarding “GCGGTCGGGCCGGCCCAGGAAATACCAGGCGACGTGGCGGCGGAGTCACCTAGTGCAG”, the binding signal is 8410 fluorescence intensity (a.u.).
Turning to “CTGGGCCTGCACAGTCCGTCTCCGACCCGCGTGGCCTCTCCGGAGTCACCTAGTGCAG”, the binding signal is 3500 fluorescence intensity (a.u.).
Consider “GCGGATTAATTACTACTGGGCTGGCATTCTGATCACTTTGCGGAGTCACCTAGTGCAG”, for which the binding signal was 5260 fluorescence intensity (a.u.).
